Source: the supplement of paper PMC12819154, “High-throughput peptide-centric local stability assay extends protein–ligand identification to membrane proteins, tissues and bacteria” (Nature Structural & Molecular Biology, 2025)
This is one part of the list. Most entries show no effect beyond the scatter of the controls.

By UniProt entry, the sequences of proteins in these tests, tags left out. Where a name states a change or a piece, a line headed by the entry shows the natural chain unless it says otherwise.
UniProt Q9UPN9: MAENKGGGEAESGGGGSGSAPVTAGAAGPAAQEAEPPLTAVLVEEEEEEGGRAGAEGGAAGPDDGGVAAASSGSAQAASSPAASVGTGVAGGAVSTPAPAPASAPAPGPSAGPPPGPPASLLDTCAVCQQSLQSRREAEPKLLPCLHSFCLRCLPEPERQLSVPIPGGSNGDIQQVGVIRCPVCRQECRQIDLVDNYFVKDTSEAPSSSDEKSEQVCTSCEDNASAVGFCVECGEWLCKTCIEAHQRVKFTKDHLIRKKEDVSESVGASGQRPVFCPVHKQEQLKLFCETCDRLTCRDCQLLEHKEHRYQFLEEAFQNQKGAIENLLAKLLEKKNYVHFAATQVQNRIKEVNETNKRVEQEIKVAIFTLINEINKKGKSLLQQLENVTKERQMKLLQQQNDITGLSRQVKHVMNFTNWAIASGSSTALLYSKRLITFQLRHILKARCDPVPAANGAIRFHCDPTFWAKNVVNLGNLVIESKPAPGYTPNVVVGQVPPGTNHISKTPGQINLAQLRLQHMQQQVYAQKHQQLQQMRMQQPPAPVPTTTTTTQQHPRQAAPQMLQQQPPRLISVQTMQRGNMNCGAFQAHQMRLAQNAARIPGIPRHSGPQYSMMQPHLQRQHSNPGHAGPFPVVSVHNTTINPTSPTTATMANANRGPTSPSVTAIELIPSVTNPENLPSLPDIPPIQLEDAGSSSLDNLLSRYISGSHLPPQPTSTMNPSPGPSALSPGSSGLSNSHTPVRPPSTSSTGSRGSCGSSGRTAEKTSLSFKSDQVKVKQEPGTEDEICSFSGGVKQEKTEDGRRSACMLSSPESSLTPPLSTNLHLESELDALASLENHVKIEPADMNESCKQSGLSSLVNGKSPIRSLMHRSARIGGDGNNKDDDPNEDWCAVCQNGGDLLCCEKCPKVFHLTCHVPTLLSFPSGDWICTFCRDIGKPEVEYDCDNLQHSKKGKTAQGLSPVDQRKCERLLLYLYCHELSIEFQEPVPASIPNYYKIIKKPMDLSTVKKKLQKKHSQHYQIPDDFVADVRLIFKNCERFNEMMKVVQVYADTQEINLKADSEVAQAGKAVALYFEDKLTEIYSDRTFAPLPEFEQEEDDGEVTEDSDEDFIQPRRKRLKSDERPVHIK
UniProt Q9UKF6: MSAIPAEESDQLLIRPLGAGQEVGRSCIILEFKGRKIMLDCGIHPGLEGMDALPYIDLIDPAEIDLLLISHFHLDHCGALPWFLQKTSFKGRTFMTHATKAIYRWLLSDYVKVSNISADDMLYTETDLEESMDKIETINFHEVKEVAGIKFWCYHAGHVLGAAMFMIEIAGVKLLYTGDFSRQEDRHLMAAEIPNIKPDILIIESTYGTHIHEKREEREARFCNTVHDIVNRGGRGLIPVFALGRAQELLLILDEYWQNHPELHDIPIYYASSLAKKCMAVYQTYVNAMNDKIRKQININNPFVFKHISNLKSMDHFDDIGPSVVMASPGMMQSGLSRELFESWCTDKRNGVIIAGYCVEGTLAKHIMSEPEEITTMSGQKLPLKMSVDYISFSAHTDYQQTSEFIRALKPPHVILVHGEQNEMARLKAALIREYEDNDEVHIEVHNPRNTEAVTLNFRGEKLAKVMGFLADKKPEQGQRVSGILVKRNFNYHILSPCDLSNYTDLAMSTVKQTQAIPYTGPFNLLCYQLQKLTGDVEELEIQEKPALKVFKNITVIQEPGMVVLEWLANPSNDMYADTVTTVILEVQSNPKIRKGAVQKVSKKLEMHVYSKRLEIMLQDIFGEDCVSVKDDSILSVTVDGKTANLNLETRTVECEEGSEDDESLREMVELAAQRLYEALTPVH
UniProt Q9UMR2: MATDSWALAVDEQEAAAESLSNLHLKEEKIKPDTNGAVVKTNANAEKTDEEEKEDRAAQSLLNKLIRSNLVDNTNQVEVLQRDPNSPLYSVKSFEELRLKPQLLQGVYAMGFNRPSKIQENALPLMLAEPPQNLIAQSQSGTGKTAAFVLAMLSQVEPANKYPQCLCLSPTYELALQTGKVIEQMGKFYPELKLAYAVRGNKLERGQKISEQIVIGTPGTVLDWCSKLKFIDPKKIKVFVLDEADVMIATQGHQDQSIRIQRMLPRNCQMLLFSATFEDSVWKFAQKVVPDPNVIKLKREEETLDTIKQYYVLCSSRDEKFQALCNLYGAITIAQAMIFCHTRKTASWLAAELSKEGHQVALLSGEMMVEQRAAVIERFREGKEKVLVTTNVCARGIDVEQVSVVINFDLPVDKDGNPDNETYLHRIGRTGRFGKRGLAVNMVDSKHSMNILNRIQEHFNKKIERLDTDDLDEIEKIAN
UniProt Q9Y262, whole entry: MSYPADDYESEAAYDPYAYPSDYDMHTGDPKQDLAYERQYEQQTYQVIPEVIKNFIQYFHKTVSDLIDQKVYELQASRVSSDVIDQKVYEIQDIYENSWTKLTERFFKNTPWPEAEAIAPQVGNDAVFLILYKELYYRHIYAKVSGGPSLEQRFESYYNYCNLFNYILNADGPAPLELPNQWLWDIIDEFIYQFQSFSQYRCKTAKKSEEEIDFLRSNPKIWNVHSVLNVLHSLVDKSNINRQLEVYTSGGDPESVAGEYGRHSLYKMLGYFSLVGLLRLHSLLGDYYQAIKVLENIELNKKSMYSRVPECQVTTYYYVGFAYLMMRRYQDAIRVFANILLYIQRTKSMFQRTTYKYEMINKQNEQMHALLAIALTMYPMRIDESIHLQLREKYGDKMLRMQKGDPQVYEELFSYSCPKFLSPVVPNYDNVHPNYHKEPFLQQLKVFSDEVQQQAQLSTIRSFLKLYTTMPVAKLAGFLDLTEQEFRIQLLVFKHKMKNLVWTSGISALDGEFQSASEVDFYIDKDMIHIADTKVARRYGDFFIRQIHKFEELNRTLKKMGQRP
UniProt Q9UPQ9, whole entry: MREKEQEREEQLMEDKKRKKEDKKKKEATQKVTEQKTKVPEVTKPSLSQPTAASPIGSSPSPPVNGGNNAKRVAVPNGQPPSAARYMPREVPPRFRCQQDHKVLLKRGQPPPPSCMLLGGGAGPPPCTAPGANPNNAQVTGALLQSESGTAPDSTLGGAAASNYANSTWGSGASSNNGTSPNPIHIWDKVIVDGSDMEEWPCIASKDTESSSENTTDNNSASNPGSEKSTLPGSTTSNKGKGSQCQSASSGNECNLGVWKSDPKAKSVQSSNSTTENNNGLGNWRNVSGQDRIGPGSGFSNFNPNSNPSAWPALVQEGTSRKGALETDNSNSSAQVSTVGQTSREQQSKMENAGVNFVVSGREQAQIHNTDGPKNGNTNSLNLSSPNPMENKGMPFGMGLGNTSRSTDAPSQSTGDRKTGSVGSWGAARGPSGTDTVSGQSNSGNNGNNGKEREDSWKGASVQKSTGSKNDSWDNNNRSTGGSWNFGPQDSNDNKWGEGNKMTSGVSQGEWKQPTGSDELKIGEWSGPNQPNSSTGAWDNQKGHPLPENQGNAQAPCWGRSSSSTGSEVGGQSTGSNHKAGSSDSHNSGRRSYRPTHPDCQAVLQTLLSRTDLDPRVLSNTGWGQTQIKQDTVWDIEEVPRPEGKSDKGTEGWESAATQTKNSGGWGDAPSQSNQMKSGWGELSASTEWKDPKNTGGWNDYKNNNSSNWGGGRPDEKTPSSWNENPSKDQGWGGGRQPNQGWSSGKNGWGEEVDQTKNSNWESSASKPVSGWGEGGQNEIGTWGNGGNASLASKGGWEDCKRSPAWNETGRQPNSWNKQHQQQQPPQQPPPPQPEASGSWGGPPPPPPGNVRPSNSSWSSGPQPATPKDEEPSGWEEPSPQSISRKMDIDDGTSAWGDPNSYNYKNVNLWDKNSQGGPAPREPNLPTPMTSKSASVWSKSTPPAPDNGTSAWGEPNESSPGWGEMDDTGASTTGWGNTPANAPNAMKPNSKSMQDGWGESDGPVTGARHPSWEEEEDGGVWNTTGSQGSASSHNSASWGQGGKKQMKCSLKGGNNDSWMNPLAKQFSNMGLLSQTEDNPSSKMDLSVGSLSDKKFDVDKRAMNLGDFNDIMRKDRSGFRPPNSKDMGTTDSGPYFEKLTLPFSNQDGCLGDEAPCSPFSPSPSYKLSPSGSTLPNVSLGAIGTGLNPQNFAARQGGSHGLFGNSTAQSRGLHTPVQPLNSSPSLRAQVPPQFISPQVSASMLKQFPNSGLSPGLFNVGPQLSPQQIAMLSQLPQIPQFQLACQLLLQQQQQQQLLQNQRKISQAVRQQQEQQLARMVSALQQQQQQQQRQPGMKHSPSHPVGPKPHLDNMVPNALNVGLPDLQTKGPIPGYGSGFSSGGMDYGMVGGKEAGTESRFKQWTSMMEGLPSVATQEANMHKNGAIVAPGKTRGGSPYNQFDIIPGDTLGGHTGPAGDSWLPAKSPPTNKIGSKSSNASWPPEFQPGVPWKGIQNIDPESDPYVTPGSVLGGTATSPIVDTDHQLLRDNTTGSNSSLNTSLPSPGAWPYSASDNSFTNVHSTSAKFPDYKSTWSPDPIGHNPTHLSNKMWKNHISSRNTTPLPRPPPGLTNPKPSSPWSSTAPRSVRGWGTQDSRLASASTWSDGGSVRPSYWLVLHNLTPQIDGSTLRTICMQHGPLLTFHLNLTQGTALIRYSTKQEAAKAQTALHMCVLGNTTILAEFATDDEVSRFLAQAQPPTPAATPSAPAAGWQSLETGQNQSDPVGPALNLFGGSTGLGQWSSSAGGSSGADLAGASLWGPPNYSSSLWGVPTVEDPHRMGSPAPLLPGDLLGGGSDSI
UniProt Q9UQR1: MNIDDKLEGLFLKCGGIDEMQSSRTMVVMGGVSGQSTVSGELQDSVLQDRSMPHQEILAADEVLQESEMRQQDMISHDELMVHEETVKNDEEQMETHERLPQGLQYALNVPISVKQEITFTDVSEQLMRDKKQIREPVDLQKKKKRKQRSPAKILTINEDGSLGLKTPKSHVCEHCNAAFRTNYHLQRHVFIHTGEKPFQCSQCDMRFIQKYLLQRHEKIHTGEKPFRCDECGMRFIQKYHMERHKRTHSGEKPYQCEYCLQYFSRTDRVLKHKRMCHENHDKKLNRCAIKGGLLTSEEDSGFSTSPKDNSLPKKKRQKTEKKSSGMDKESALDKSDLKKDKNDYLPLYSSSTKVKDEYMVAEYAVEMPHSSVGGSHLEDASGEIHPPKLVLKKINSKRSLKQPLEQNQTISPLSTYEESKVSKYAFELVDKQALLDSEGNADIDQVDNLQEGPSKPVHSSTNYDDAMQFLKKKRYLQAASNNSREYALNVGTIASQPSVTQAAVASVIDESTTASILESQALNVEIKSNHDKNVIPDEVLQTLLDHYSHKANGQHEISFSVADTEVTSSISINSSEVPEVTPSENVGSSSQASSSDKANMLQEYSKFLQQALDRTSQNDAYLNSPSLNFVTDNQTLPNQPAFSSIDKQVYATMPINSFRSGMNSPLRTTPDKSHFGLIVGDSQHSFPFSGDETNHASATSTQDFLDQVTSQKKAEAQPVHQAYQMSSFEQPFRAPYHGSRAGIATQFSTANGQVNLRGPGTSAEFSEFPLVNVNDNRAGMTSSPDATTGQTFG
UniProt Q9ULJ8: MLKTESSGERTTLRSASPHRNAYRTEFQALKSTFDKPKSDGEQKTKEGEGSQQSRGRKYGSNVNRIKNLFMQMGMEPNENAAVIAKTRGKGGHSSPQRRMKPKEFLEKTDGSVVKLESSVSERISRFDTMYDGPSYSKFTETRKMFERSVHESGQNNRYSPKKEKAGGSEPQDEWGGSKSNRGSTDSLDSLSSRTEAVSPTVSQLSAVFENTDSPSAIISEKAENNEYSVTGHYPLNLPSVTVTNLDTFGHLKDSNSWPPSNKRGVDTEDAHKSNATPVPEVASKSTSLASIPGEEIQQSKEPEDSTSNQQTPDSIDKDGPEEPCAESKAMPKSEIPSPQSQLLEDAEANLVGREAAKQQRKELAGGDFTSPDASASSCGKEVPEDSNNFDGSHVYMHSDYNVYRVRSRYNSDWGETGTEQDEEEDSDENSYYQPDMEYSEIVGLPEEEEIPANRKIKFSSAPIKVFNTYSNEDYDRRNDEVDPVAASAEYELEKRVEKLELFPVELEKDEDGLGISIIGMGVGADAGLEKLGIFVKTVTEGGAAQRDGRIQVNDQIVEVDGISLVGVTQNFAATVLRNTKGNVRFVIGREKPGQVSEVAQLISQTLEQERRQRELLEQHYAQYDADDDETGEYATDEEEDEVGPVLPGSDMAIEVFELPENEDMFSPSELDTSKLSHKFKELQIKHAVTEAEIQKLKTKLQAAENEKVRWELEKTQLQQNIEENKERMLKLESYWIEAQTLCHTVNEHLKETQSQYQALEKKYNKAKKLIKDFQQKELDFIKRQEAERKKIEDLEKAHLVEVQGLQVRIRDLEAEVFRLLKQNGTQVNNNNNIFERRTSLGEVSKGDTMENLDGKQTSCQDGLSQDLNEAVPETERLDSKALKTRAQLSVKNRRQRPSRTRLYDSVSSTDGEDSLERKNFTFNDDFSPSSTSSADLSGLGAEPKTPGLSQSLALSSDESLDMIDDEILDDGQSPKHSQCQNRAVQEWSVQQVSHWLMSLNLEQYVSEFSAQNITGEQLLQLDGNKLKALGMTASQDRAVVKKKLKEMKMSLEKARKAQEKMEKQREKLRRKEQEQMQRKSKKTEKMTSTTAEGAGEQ

compound: CN[C@@H]1C[C@H]2O[C@@](C)([C@@H]1OC)n1c3ccccc3c3c4c(c5c6ccccc6n2c5c31)C(=O)NC4 [staurosporine]; assay: log2 fold change of tryptic peptide abundance, ligand vs vehicle (limited proteolysis) (log2 ratio); higher = more trypsin-susceptible (destabilized); details: ligand concentration: 20 uM; sample: K562 cleared lysate; digestion: 4 min, 22 C (HT-PELSA RT4min, Orbitrap Astral)

Target | log2 fold change
YARS2 (peptide sequence: KANAIPDGPR, peptide start residue: 415) (UniProt Q9Y2Z4) | 0.561
HECTD1 (peptide sequence: MAAAGGTVSGPSSACKPGR, peptide start residue: 240) (UniProt Q9ULT8) | -0.239
ZNF346 (peptide sequence: TVASSLGQIPMQR, peptide start residue: 270) (UniProt Q9UL40) | -0.241
NIP7 (peptide sequence: FRLHVTALDYLAPYAK, peptide start residue: 79) (UniProt Q9Y221) | -1.19
PRELID1 (peptide sequence: AKETALAATEK, peptide start residue: 189) (UniProt Q9Y255) | 0.481
UniProt Q9UNT1 (peptide sequence: AHACIMVFDVQR, peptide start residue: 94) | 0.303
CFL2 (peptide sequence: ESKKEDLVFIFWAPESAPLK, peptide start residue: 93) (UniProt Q9Y281) | 0.115
DUSP12 (peptide sequence: MNEGFEWQLK, peptide start residue: 154) (UniProt Q9UNI6) | -0.105
WDR3 (peptide sequence: NLLVTSGKDTMVK, peptide start residue: 162) (UniProt Q9UNX4) | -0.124
SSR3 (peptide sequence: QQSEEDLLLQDFSR, peptide start residue: 9) (UniProt Q9UNL2) | 0.357
NOL7 (peptide sequence: VKEVNLQKK, peptide start residue: 137) (UniProt Q9UMY1) | 1.05
TRIM33 (peptide sequence: LLPCLHSFCLRCLPEPER, peptide start residue: 142) (UniProt Q9UPN9) | -0.629
PSMD13 (peptide sequence: QLTFEEIAK, peptide start residue: 290) (UniProt Q9UNM6) | 0.548
STX8 (peptide sequence: LLLASFKNEGAEPDLIR, peptide start residue: 92) (UniProt Q9UNK0) | -0.355
AGAP1 (peptide sequence: RSNLFTSR, peptide start residue: 314) (UniProt Q9UPQ3) | 0.628
CPSF3 (peptide sequence: GLIPVFALGR, peptide start residue: 236) (UniProt Q9UKF6) | 0.237
UniProt Q9Y312 (peptide sequence: MGFFLSLHQR, peptide start residue: 75) | -0.181
DDX19B (peptide sequence: LKPQLLQGVYAMGFNRPSK, peptide start residue: 98) (UniProt Q9UMR2) | 0.181

Target | log2 fold change
POLR3K (peptide sequence: CHRFACNTCPYVHNITR, peptide start residue: 20) (UniProt Q9Y2Y1) | 0.314
WDR37 (peptide sequence: YAGHVGSVNSIK, peptide start residue: 195) (UniProt Q9Y2I8) | 0.81
ICE1 (peptide sequence: ESSATHSLVGEK, peptide start residue: 451) (UniProt Q9Y2F5) | 0.664
EIF3L (peptide sequence: TVSDLIDQK, peptide start residue: 62) (UniProt Q9Y262) | 0.168
MCTS1 (peptide sequence: EGPFYPTLR, peptide start residue: 75) (UniProt Q9ULC4) | 0.271
SARDH (peptide sequence: EALEQQR, peptide start residue: 926) (UniProt Q9UL12) | -0.0982
TNRC6B (peptide sequence: QPTGSDELK, peptide start residue: 513) (UniProt Q9UPQ9) | -0.411
RAB22A (peptide sequence: VCLLGDTGVGK, peptide start residue: 8) (UniProt Q9UL26) | -0.37
BAG5 (peptide sequence: ARYHTLTK, peptide start residue: 148) (UniProt Q9UL15) | -0.99
DDX52 (peptide sequence: TGFRDQLASIFLACTSHK, peptide start residue: 329) (UniProt Q9Y2R4) | 0.667
MINPP1 (peptide sequence: CSLLEPR, peptide start residue: 30) (UniProt Q9UNW1) | -0.441
ZNF148 (peptide sequence: SGMNSPLR, peptide start residue: 661) (UniProt Q9UQR1) | 0.626
PPP1R9A (peptide sequence: MTSTTAEGAGEQ, peptide start residue: 1087) (UniProt Q9ULJ8) | -0.107
UniProt Q9UKN5 (peptide sequence: INSAVYSADESLSAHK, peptide start residue: 786) | -0.268
UniProt Q9Y2J0 (peptide sequence: TGGVGGYPAVGAR, peptide start residue: 333) | -0.244
NENF (peptide sequence: LFTEEELAR, peptide start residue: 46) (UniProt Q9UMX5) | -0.316
PHF8 (peptide sequence: ATLIIRPK, peptide start residue: 666) (UniProt Q9UPP1) | 0.209
INO80 (peptide sequence: AGAAAASAAAYAAYGYNVSK, peptide start residue: 1465) (UniProt Q9ULG1) | -0.501

2 entries from above, as tab-separated lines.
Target	log2 fold change
NENF (peptide sequence: LFTEEELAR, peptide start residue: 46) (UniProt Q9UMX5)	-0.316
PHF8 (peptide sequence: ATLIIRPK, peptide start residue: 666) (UniProt Q9UPP1)	0.209
